Part of at least one peptide drawing is inferred or uncertain, most often the ends. Some compounds share one wording; it may come from a single statement.
The compounds below were run on androgen-sterilised constant oestrus rats (assay: induction of ovulation in androgen-sterilised constant oestrus rats). Settings: ratio to luliberin.
Assay type: in vivo
For `CC(C)C[C@H](NC(=O)[C@@H](Cc1ccccc1)NC(=O)[C@H](Cc1ccc(O)cc1)NC(=O)[C@H](CO)NC(=O)[C@H](Cc1c[nH]c2ccccc12)NC(=O)[C@H](Cc1c[nH]cn1)NC(=O)[C@@H]1CCC(=O)N1)C(=O)N[C@@H](CCCNC(=N)N)C(=O)N1CCC[C@H]1C(=O)NNC(N)=O` [Example 4], the “activity relative to luliberin in ability to induce ovulation” value (“activity relative to luliberin” for short) was “approximately one hundred”. `COc1ccc(C[C@@H](NC(=O)[C@H](Cc2ccc(O)cc2)NC(=O)[C@H](CO)NC(=O)[C@H](Cc2c[nH]c3ccccc23)NC(=O)[C@H](Cc2c[nH]cn2)NC(=O)[C@@H]2CCC(=O)N2)C(=O)N[C@@H](CC(C)C)C(=O)N[C@@H](CCCNC(=N)N)C(=O)N2CCC[C@H]2C(=O)NNC(N)=O)cc1` [Example 6] was tested, and the “activity relative to luliberin” value was “approximately one hundred”. In the case of `CC(C)C[C@H](NC(=O)[C@@H](COC(C)(C)C)NC(=O)[C@H](Cc1ccc(O)cc1)NC(=O)[C@H](CO)NC(=O)[C@H](Cc1c[nH]c2ccccc12)NC(=O)[C@H](Cc1c[nH]cn1)NC(=O)[C@@H]1CCC(=O)N1)C(=O)N[C@@H](CCCNC(=N)N)C(=O)N1CCC[C@H]1C(=O)NNC(N)=O` [Example 7], the “activity relative to luliberin” value is reported as “approximately one hundred”.

Reference: US4100274A, “Polypeptide” (Imperial Chemical Industries Limited, priority 1976, dated 1978)
